Among all 53,000 sequences or so, about 3,700 (7%) were called active.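 How the source made its calls: active means gene knockdowns whose robust z-score for IL-1 alpha signal is at least 2 or at most -2, so actives lie on both sides; inactive means the rest.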 Some of the results follow.

The assay can be described thus: Components of the Cytosolic LPS Sensing Pathway: Gene Identification via Genome-wide siRNA Screen.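 Further: robust z of the log signal after scaling to non-targeting control siRNA wells of the plate.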 The settings on record: RAW264.7 macrophages, IL-1a HTRF, actives lie on both sides, screened at 100 nM (by protocol), cells primed 5 h with Pam3CSK4 first. Put shortly:
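Using IL-1a HTRF as read-out, the screen measured release from RAW264.7 cells after 48h siRNA knockdown (100 nM), 5 h Pam3CSK4 priming and 24 h cytosolic LipidA. Values were expressed relative to negative-control wells as robust z-scores.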
(In general: In TR-FRET formats the signal depends on donor and acceptor labels being close together.)
In the case of GGACGAUUCUUUUCUCCAGTT against Surf1, the z-score was active: -2.07.
Consider GCAUACCUCCGUAUUGUGATT against Snx30, for which the z-score is inactive: -0.868.
As for GGCAUAACGAUGGGAAACATT against Insig2, the figure is inactive: 0.62; as for GGGACAUUAAGUGAUUUGUTT against Fbxo30, inactive: -0.271; as for GCUGGACUCACAUUUCAGUTT against Fam228a, inactive: -1.28.
As for GGAACAAUGCCAGAAGUGUTT against Cul7, the z-score is inactive: -1.87.
Consider CCAUGUUACGGAUUAUCUATT against Wdr24, for which the z-score is inactive: 3.9e-05.
Take GUGGCUUCAGAUCUCUGAATT against Krtap13: the z-score is inactive: -0.394.
In the case of “GGUUGCUUUUCUCUUUGAATT against 4921536K21Rik” it was inactive: -0.996; in that of GCAACAUAUGUUCAAGAUCTT against Ccdc163, inactive: 0.53.
Take GGCCUUGAUCCAAAAGUGGTT against Cyp21a1: the z-score was inactive: -0.418.
In the case of GGCGGAGUUAAAUUUUCUGTT against Pcdhgb6 it was inactive: 0.613; in that of CCUGACCAAGCUUGCUUGGTT against Taz, inactive: -0.63; in that of GGCGUGGCAACAUGGACAATT against Tmem98, inactive: 1.76.
In the case of GCUUCUGAAUUCCUACUUGTT against Dtymk it was inactive: 0.759; in that of GGGCCAUGCCAACAUAGUATT against Gabpb1, inactive: -0.0381.
In the case of CGGUAAUCUUAUGACAACUTT against Gpc6 it was inactive: 1.06; in that of “CCUGGUAUAGAGUGAAAUCTT against 4930522H14Rik”, inactive: -0.686.
On to GGCUUAUUGGAAGAGGACGTT against Ier5, for which the z-score is inactive: 0.559.
In the case of “CCUAGAGACCCAUUCUCUATT against 2210409E12Rik” it was inactive: 1.7; in that of GGCCAAACAGUUAUCUGAATT against AI182371, inactive: -1.71; in that of GGCUGAGAACAUCAAAAAATT against Folh1, inactive: 0.816.
As for GCUGUGCUUACAUGUUUACTT against Rpn2, the figure is inactive: -0.494; as for GGUAUUAAGUAGGUGUUAATT against Sec22c, inactive: 0.274.
As for CGGAUUCUUUUCUAAAGUGTT against Lox, the z-score was inactive: 0.743.
In the case of GCCUUCGACAGUUUCUAGATT against Gpr162 it was inactive: 0.322; in that of GCCUCAUCGUUGCUGACUATT against Pde3b, active: -2.04.
As for GGAUAAGAUCCGACUAUUCTT against Evc2, the figure is inactive: 0.227; as for GGAACACACUAAAAUUCGATT against Cyp17a1, inactive: -0.183; as for GGUCGAACAUUUAAACUCUTT against Ifit3, inactive: -0.492.
In the case of GCUUUUAAGAUCUCCCUCCTT against Gtf2h3 it was inactive: 0.308.
As for GGUAACUGUGGACUUAUCUTT against Olfr665, the z-score was active: -2.17.
In the case of GCUCAGCAAUACUUCCUACTT against Itgal it was inactive: -0.188.
In the case of GGAGCUAUUUUAGAUUAUGTT against Ankrd13a it was inactive: 1.12; in that of CCCAGGAGAUCCAUAUCAATT against Pgghg, inactive: -0.914; in that of “GGGUGUCAACCCUUUAGAUTT against C130026I21Rik”, inactive: 0.685.
Turning to GGCCAUCACUAAAUAAUGGTT against Ctdspl2, the z-score was inactive: -0.123.
In the case of GGAAGUGGAAAAAGUUUAGTT against Brip1 it was inactive: 0.442; in that of GGUAUUAAAUGCUAUGCUGTT against Srp54a, inactive: -0.923; in that of GAAAGAAACCAUGUUCACATT against Lce1l, inactive: 1.36.
As for CCCAUGAUAAUGAAUUAGCTT against Olfr378, the figure is inactive: -0.537.
Regarding GGAAAAGGAUGAUUAUGAATT against Son, the z-score is inactive: -1.66.
As for GGGCCUAUGCUUACAAACGTT against Pkp3, the figure is active: 2.37; as for GGCCAGCAAACAGUUUCUATT against Adgrb1, inactive: -0.174.
In the case of CGGACAUUGUUCUGUUUUCTT against Por it was inactive: 0.843; in that of UAGUCAUCUUCACUCUCCUTT against Olfr1249, inactive: -0.907; in that of GGUUUUUCUGUCAAGUGCUTT against Lgr5, inactive: -0.303.
For UUGGCUGCAUUAUCAUGAGTT against Olfr311, the z-score was inactive: -0.419.
In the case of GGGAACAUAAUGGAAAUGUTT against Il1f6 it was inactive: 0.861; in that of CCUGGCUAAGCUAGAGAAUTT against Camkv, inactive: -0.368; in that of CGUGGAAAAGCUAUGUGCGTT against Lif, inactive: -0.188.
As for GCGAGAAUUCUCUUCCAAUTT against Gsx2, the figure is active: 2.33; as for GCAUAAUGUUACCUAAGUCTT against Ifngr1, inactive: -0.442; as for GGUUCUUAAACUCAAAUCUTT against Alox12b, inactive: 0.131.
As for GGUCCAGCUAUCCUUGACCTT against Hgfac, the figure is inactive: -0.541; as for GGUCUGUUAUGCAGAAUGCTT against Ttc39a, inactive: 0.991; as for CCGAGGGUACCUAAGGUUUTT against Ell3, inactive: -0.278.
On to GCAUAGCAGAGCUGUGCUATT against Aprt, for which the z-score was inactive: -0.221.
GGCCAUAAAACAUAAGCUATT against Tmem17: the z-score is inactive: 0.163.
With GGCUGUAAAUAAAUGCCUUTT against Cdc25c, the z-score is inactive: 0.111.
Turning to GCGCAAAAAGGGAUCUAAGTT against Ogg1, the z-score is inactive: 0.557.
As for GGAACUGGAGAAGAUGGAGTT against Uncx, the figure is inactive: 0.748.
Consider GGGCGAGAUGCAUAAGGAUTT against Rnd2, for which the z-score was inactive: -0.324.
For GGAGGAGAACAGCAAUCUUTT against Speer4d, the z-score was active: -2.38.
Regarding CCAAAUGAAAUUCAUUCUCTT against Ptger2, the z-score is inactive: 0.746.
In the case of GGUGCUGCACAAAUACAUATT against Eef1aknmt it was inactive: 0.715; in that of GCAUCACACCACAGAAAGUTT against Hmgcll1, inactive: -0.616.
Regarding GGCUGGUUUAUUUGUGGACTT against Cemip2, the z-score is inactive: 0.574.
